Reference: patent US20220257653A1
Results are given in words; binding and its absence hold for the method and conditions named. Some binding calls cover weakened binding; strength is not graded here.

Sequences of proteins named here, by UniProt entry; tags and fusion partners are left off. A change or cut given only in a name is not applied to a line headed by its entry.
UniProt P01732: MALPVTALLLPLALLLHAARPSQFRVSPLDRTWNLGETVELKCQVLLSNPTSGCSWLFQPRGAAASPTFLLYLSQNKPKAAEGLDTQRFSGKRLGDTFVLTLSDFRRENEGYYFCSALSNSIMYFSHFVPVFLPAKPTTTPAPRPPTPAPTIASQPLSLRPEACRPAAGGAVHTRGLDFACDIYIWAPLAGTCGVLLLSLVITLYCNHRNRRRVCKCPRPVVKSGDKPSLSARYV

Target: T1, soluble, recombinant, human GPC2 (fluorescently labelled) (human) (UniProt Q8N158)
T1 sequence (fluorescently labelled, looked up): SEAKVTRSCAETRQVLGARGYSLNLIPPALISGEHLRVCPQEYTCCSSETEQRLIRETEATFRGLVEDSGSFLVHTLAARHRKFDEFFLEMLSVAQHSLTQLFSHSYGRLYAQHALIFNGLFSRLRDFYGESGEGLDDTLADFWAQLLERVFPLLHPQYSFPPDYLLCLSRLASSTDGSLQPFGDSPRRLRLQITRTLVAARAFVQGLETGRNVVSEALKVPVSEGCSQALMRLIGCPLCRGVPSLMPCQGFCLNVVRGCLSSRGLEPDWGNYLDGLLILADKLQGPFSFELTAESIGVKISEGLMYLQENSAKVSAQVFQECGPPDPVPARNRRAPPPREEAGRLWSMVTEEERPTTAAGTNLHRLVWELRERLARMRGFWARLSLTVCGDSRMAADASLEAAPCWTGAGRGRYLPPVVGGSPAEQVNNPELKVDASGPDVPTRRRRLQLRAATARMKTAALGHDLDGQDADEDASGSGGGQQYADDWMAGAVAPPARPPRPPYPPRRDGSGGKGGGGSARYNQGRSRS
Assay: flow cytometry of CAR T-cells stained with fluorescently labelled soluble recombinant human GPC2

binding	Substance
binds	GPC2 CAR construct with the GPC2.D3 scFv in variable heavy chain-linker-variable light chain orientation, CD8a hinge and transmembrane domain, 41BBz signaling domain (on primary human T-cells) (from UniProt P01732 138-206; Q07011 214-255; P20963 52-163)
binds	GPC2 CAR construct with the GPC2.D4 scFv in variable heavy chain-linker-variable light chain orientation, CD8a hinge and transmembrane domain, 41BBz signaling domain (on primary human T-cells) (from UniProt P01732 138-206; Q07011 214-255; P20963 52-163)
